Results on three molecules are retold here after article PMC8564113, “Erianin: A Direct NLRP3 Inhibitor With Remarkable Anti-Inflammatory Activity” (Frontiers in Immunology, 2021).

Sequences of proteins named here, by UniProt entry; tags and fusion partners are left off. A change or cut given only in a name is not applied to a line headed by its entry.
UniProt Q9ULZ3: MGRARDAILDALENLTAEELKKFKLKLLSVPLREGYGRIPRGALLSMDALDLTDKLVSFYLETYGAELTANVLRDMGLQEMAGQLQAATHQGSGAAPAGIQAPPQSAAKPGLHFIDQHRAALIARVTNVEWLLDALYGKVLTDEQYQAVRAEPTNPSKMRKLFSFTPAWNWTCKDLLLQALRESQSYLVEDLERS
UniProt Q8TDX7: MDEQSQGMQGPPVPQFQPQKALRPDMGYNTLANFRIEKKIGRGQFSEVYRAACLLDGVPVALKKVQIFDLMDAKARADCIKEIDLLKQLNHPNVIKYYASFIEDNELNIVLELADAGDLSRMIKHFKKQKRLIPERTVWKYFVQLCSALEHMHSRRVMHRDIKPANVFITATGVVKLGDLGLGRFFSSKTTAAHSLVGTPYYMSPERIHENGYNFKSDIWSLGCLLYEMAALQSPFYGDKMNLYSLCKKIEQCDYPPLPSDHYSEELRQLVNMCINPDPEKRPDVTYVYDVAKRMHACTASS
UniProt P29466: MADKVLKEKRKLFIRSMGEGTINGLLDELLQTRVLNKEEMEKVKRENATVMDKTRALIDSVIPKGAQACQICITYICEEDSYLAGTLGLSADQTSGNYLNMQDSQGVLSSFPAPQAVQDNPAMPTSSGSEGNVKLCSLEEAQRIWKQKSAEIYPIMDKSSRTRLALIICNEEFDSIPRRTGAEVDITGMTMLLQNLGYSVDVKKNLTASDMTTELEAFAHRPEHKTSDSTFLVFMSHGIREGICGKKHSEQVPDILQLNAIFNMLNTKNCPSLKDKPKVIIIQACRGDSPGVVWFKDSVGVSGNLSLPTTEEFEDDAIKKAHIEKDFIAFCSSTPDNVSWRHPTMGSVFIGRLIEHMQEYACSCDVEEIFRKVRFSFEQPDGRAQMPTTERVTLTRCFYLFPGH

In one assay the target is Myc-ASC (UniProt Q9ULZ3). Nature of the assay: co-IP; HEK293T co-transfected for 36 h, no Eri; 500 ug extract with primary antibody overnight at 4 C, protein A/G Sepharose CL-4B, western blot (ASC-Casp-1 kept also with Eri 5 nM, 6 h). For orientation: In western blotting, separated proteins are transferred to a membrane and probed.
Assay [1] concerns the target Myc-tagged NEK7 (printed as Myc-tagged MEK7) (UniProt Q8TDX7). The experiment in a line: co-IP; exogenous proteins, with Eri (Figure S4A; cells and tags not shown).
Assay [2] deals with NEK7 (endogenous, Figure S4B) (UniProt Q8TDX7). The experiment in a line: co-IP; endogenous proteins, with Eri (Figure S4B; cells not shown).

These are yes or no findings as the source states them, for the method shown. Binding seen in cells or lysates may run through a third protein. Some entries that bind do so weakly or less than the wild type.

Consider Flag-Casp-1 (from UniProt P29466 1-404), for which, in the assay with Myc-ASC, the binding result was “binds”.

B1: NEK9 (exogenous) (protein, UniProt Q8TD19 1-979)
chain: MSVLGEYERHCDSINSDFGSESGGCGDSSPGPSASQGPRAGGGAAEQEELHYIPIRVLGRGAFGEATLYRRTEDDSLVVWKEVDLTRLSEKERRDALNEIVILALLQHDNIIAYYNHFMDNTTLLIELEYCNGGNLYDKILRQKDKLFEEEMVVWYLFQIVSAVSCIHKAGILHRDIKTLNIFLTKANLIKLGDYGLAKKLNSEYSMAETLVGTPYYMSPELCQGVKYNFKSDIWAVGCVIFELLTLKRTFDATNPLNLCVKIVQGIRAMEVDSSQYSLELIQMVHSCLDQDPEQRPTADELLDRPLLRKRRREMEEKVTLLNAPTKRPRSSTVTEAPIAVVTSRTSEVYVWGGGKSTPQKLDVIKSGCSARQVCAGNTHFAVVTVEKELYTWVNMQGGTKLHGQLGHGDKASYRQPKHVEKLQGKAIRQVSCGDDFTVCVTDEGQLYAFGSDYYGCMGVDKVAGPEVLEPMQLNFFLSNPVEQVSCGDNHVVVLTRNKEVYSWGCGEYGRLGLDSEEDYYTPQKVDVPKALIIVAVQCGCDGTFLLTQSGKVLACGLNEFNKLGLNQCMSGIINHEAYHEVPYTTSFTLAKQLSFYKIRTIAPGKTHTAAIDERGRLLTFGCNKCGQLGVGNYKKRLGINLLGGPLGGKQVIRVSCGDEFTIAATDDNHIFAWGNGGNGRLAMTPTERPHGSDICTSWPRPIFGSLHHVPDLSCRGWHTILIVEKVLNSKTIRSNSSGLSIGTVFQSSSPGGGGGGGGGEEEDSQQESETPDPSGGFRGTMEADRGMEGLISPTEAMGNSNGASSSCPGWLRKELENAEFIPMPDSPSPLSAAFSESEKDTLPYEELQGLKVASEAPLEHKPQVEASSPRLNPAVTCAGKGTPLTPPACACSSLQVEVERLQGLVLKCLAEQQKLQQENLQIFTQLQKLNKKLEGGQQVGMHSKGTQTAKEEMEMDPKPDLDSDSWCLLGTDSCRPSL
Consider B1, for which the binding result in assay [1] is listed as “binds”.

B2: NEK9 (endogenous, Figure S4B) (protein, UniProt Q8TD19 1-979)
chain: MSVLGEYERHCDSINSDFGSESGGCGDSSPGPSASQGPRAGGGAAEQEELHYIPIRVLGRGAFGEATLYRRTEDDSLVVWKEVDLTRLSEKERRDALNEIVILALLQHDNIIAYYNHFMDNTTLLIELEYCNGGNLYDKILRQKDKLFEEEMVVWYLFQIVSAVSCIHKAGILHRDIKTLNIFLTKANLIKLGDYGLAKKLNSEYSMAETLVGTPYYMSPELCQGVKYNFKSDIWAVGCVIFELLTLKRTFDATNPLNLCVKIVQGIRAMEVDSSQYSLELIQMVHSCLDQDPEQRPTADELLDRPLLRKRRREMEEKVTLLNAPTKRPRSSTVTEAPIAVVTSRTSEVYVWGGGKSTPQKLDVIKSGCSARQVCAGNTHFAVVTVEKELYTWVNMQGGTKLHGQLGHGDKASYRQPKHVEKLQGKAIRQVSCGDDFTVCVTDEGQLYAFGSDYYGCMGVDKVAGPEVLEPMQLNFFLSNPVEQVSCGDNHVVVLTRNKEVYSWGCGEYGRLGLDSEEDYYTPQKVDVPKALIIVAVQCGCDGTFLLTQSGKVLACGLNEFNKLGLNQCMSGIINHEAYHEVPYTTSFTLAKQLSFYKIRTIAPGKTHTAAIDERGRLLTFGCNKCGQLGVGNYKKRLGINLLGGPLGGKQVIRVSCGDEFTIAATDDNHIFAWGNGGNGRLAMTPTERPHGSDICTSWPRPIFGSLHHVPDLSCRGWHTILIVEKVLNSKTIRSNSSGLSIGTVFQSSSPGGGGGGGGGEEEDSQQESETPDPSGGFRGTMEADRGMEGLISPTEAMGNSNGASSSCPGWLRKELENAEFIPMPDSPSPLSAAFSESEKDTLPYEELQGLKVASEAPLEHKPQVEASSPRLNPAVTCAGKGTPLTPPACACSSLQVEVERLQGLVLKCLAEQQKLQQENLQIFTQLQKLNKKLEGGQQVGMHSKGTQTAKEEMEMDPKPDLDSDSWCLLGTDSCRPSL
Turning to B2, in assay [2], the binding result is “binds”.
